One purity is given for all peptides; the source may state it once.

The series is described as follows: general procedure: Fmoc solid-phase peptide synthesis; Fmoc-Pro-2-chlorotrityl resin. The note with it: whole synthesis, UV 220 nm.
As for “Pro^16-^DPro^15-Lys(iPr)^14-Gln^13-Tyr^12-Cys^11-Tyr^10-Arg^9-Dab^8-^DTyr^7-Ala^6-Ser^5-Cys^4-Ala^3-His^2-Tyr^1”, the “final HPLC purity” value stood at 95%.

In the case of “Pro^16-^DPro^15-Lys(iPr)^14-Gln^13-Tyr^12-Cys^11-Tyr^10-Arg^9-Orn(iPr)^8-^DPro^7-Ala^6-Ser^5-Cys^4-Tyr^3-His^2-Tyr^1”, the “final HPLC purity” value was found to be 95%.

Regarding “Pro^16-^DPro^15-Lys(iPr)^14-Gln^13-Tyr^12-Cys^11-Tyr^10-Arg^9-Orn(iPr)^8-^DTyr(Me)^7-Ala^6-Ser^5-Cys^4-Ala^3-His^2-Tyr^1”, the “final HPLC purity” value is 95%.

In the case of “Pro^16-^DPro^15-Lys(iPr)^14-Gln^13-Tyr^12-Cys^11-Tyr^10-Arg^9-Orn(iPr)^8-^DPro^7-Ala^6-Ser^5-Cys^4-Tyr(Me)^3-His^2-Tyr^1”, the “final HPLC purity” value was determined as 95%.

Consider “Pro^16-^DPro^15-Lys(iPr)^14-Gln^13-Tyr^12-Cys^11-Tyr^10-Arg^9-Orn(iPr)^8-^DTyr(Me)^7-Ala^6-Ser^5-Cys^4-Tyr(Me)^3-His^2-Tyr^1”, for which the “final HPLC purity” value is recorded as 95%.

As to “Pro^16-^DPro^15-Lys(iPr)^14-Gln^13-Tyr^12-Cys^1-Tyr^10-Arg^9-Orn(iPr)^8-^DTyr^7-Ala^6-Ser^5-Cys^4-Tyr^3-His^2-Tyr^1”, the “final HPLC purity” value was found to be 95%.

Values taken from patent US9556231B2 (POLYPHOR AG, priority 2011, dated 2017).
